Data on 60 molecules can be found in PubChem BioAssay AID2685 (National Center for Advancing Translational Sciences (NCATS), 2010).

SMILES strings stand for the structures. The list shows a part of the results. These are further read-outs of the screen, such as a control signal, another cell line or another target. No call is given for them. Compounds called inactive in the main read-out are mostly missing here. The note in brackets gives the kind of curve behind each potency; many fits are weak.

The nature of the experiment: qHTS Assay for Lipid Storage Modulators in Drosophila S3 Cells.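 For cell number change: cells counted by Cell Tracker Red CMTPX staining in the red channel.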 The settings on record: BODIPY lipid droplet fluorescence, 18-24 h; for cell number change: measured here: cell count max response, cells fed with added oleic acid. The method in brief: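 Drosophila S3 cells loaded with oleic acid (400 uM, as added) and compounds at several concentrations; lipid droplets imaged by 488-nm laser-scanning cytometry, 500–530 nm intensity and object ratio to cell channel. Percent activity normalized to 20 uM Triacsin C.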
In general terms: qHTS replaces the single test concentration by a dilution series.

Setting [1] is: measured here: lipid fluorescence (Fed channel) AC50, cells fed with added oleic acid.
Setting [2] is: measured here: cell number channel AC50, cells fed with added oleic acid.

The term AC50 denotes the midpoint of the concentration-response curve, whichever way the signal moves. Turning to `COc1ccc(CNC(=O)CN(C(=O)c2csnn2)c2cccc(C(C)=O)c2)cc1`, the cell number change was found to be 12.9%. In addition, the AC50 under setting [1] is 0.461 µM [falling, full curve].
`O=C(CN1CCN(Cc2ccccc2Cl)C1=O)NC1CCCCCCC1`: the cell number change is -23.6%.
In the case of `Cc1nn(-c2ccccc2)c(C)c1/C=N/N1CCN(c2ccccc2)CC1`, the cell number change came to 83.1%. Under setting [2], the AC50 is 7.31 µM [rising, partial curve]. The AC50 under setting [1] is 6.51 µM [rising, single point].
For the molecule `CC(=O)Nc1ccc(NC(=O)CSC2=NCCS2)cc1`, the cell number change is -4.79%. For the same molecule, the AC50 under setting [2] was 0.58 µM [rising, single point].
`C=CCNC(=O)/C(C#N)=C/c1cc(Br)ccc1OC`: the cell number change came to 40.9%. The AC50 under setting [2] is 32.6 µM [rising, single point].
For the molecule `CCOc1ccc(S(=O)(=O)NCCOC)cc1C`, the AC50 under setting [1] was 6.51 µM [rising, single point].
For the molecule `Cn1ncc(Br)c1C(=O)NC1C2CC3CC(C2)CC1C3` (stereo not given), the cell number change is 1.46%. For the same molecule, the AC50 under setting [2] is 1.84 µM [rising, partial curve, poor fit]. Besides, the AC50 under setting [1] is 2.06 µM [rising, partial curve, poor fit].
With `Cc1ccc(C(=O)c2oc3ccc(Cl)cc3c2NC(=O)CN2CCN(C)CC2)cc1`, the cell number change was determined as 25.6%. For the same molecule, under setting [1], the AC50 was 0.58 µM [rising, single point].
In the case of `CC(=O)Nc1ccc(S(=O)(=O)NC2C3(C)CCC(C3)C2(C)C)cc1` (stereo not given), the cell number change was -19.3%.
For the molecule `O=C(Nc1ccc(O)c(-c2nc3ccccc3s2)c1)c1cccs1`, the cell number change was -15.6%. Also, the AC50 under setting [1] is 0.58 µM [rising, partial curve, poor fit].
In the case of `CCCSc1nc(O)c(C(c2ccc(OC)c(O)c2)c2c(O)nc(SCCC)n(C)c2=O)c(=O)n1C`, the cell number change was -26.8%. The AC50 under setting [2] was 6.51 µM [rising, single point]. Moreover, the AC50 under setting [1] is 32.6 µM [falling, single point].
Consider `O=c1[nH]c(SCc2ccc(F)cc2Cl)nc2ccccc12`, for which the cell number change worked out at 5.51%. In addition, the AC50 under setting [1] was 3.26 µM [falling, single point].
For the molecule `COc1ccc(NS(=O)(=O)c2cccc(C(=O)OCC(=O)N3CCN(c4ccc(OC)cc4)CC3)c2)cc1`, the cell number change is -43.1%. Moreover, the AC50 under setting [2] was 29.1 µM [falling, single point]. The AC50 under setting [1] is 16.4 µM [falling, single point].
In the case of `COc1ccc(C(N)=O)cc1NC(=O)c1cccc(F)c1`, the cell number change was found to be 10.9%. The AC50 under setting [1] is 25.9 µM [rising, single point].
`CSc1ccccc1C(=O)NCC(c1ccco1)N(C)C` (stereo not given): the cell number change came out at 28.2%.
As for `Cc1cc(C(=O)c2ccc(Cl)cc2)c(NC(=O)CCl)s1`, the cell number change was -11.3%. The AC50 under setting [1] was 18.4 µM [falling, partial curve].
Turning to `CN(C)C1=NC[C@H](Cc2ccccc2)N1CCCC1CCCCC1`, the cell number change was -25.4%. Besides, under setting [1], the AC50 was 20.6 µM [falling, partial curve, poor fit].
With `CN(c1ccc(OCC(=O)OCC(=O)Nc2c(F)c(F)c(F)c(F)c2F)cc1)S(=O)(=O)c1ccc(F)cc1`, the cell number change is 1.08%. For the same molecule, the AC50 under setting [1] was 0.731 µM [falling, full curve, poor fit].
Take `COc1ccc2cc(C#N)c(N3CCN(Cc4nnnn4CCC(C)C)CC3)nc2c1`: the cell number change turned out to be 88.8%. Moreover, the concentration at half-maximal activity (AC50) under setting [2] is 2.91 µM [rising, full curve]. Moreover, the AC50 under setting [1] was 3.26 µM [rising, partial curve].
For the molecule `CCC(=O)N1CCc2cc(-c3csc(NC(=O)c4ccco4)n3)ccc21`, the cell number change was found to be 15.4%. Also, under setting [1], the AC50 was 5.8 µM [falling, full curve, poor fit].
With `Cc1ccc(-n2nc3c(=O)n(CC(=O)NCCc4ccccc4C)nc(C)c3c2C)cc1`, the cell number change amounted to 7.31%. In addition, the AC50 under setting [2] is 6.51 µM [rising, single point]. Moreover, under setting [1], the AC50 was 0.231 µM [rising, full curve, poor fit].
With `Cc1ccc2nc(SCC(=O)NCc3ccc(S(N)(=O)=O)cc3)[nH]c2c1`, under setting [1], the AC50 was 3.26 µM [falling, single point].
With `Cc1ccc(-c2nn(-c3ccccc3)cc2/C=C/C(=O)OCC(=O)NC2CC2)o1`, the cell number change is -44.7%. The AC50 under setting [2] is 16.4 µM [falling, partial curve, poor fit].
For the molecule `Oc1[nH]c2c(Cl)cc(Cl)cc2c1N=NC(=S)NCC1CCCO1` (stereo not given), the cell number change was -46.9%. The AC50 under setting [2] was 18.4 µM [falling, single point]. Also, the AC50 under setting [1] was 18.4 µM [falling, single point].
Consider `COc1cccc(CC(=O)OCC(=O)c2cc(OC)ccc2OC)c1`, for which the cell number change turned out to be 2.39%.
Take `Cc1cc(C)n(C(=O)c2sc3cc(F)ccc3c2Cl)n1`: the cell number change is -20.2%. Besides, the AC50 under setting [1] was 1.03 µM [rising, full curve].
`Cc1ccc(CN2[C@@H](Cc3ccccc3)C(=O)CS2(=O)=O)cc1`: the cell number change came to 17.6%. In addition, under setting [1], the AC50 was 0.0366 µM [rising, full curve].
On to `O=C(N/N=C/c1cccnc1)c1cccc(S(=O)(=O)N2CCCC2)c1`, for which the cell number change worked out at 32.9%. Also, the AC50 under setting [1] is 23.1 µM [rising, partial curve, poor fit].
In the case of `Cc1ccc(OCC(=O)O/N=C(\N)c2ccncc2)cc1C`, under setting [1], the AC50 is 13 µM [rising, partial curve].
Consider `Cc1ccc(C)c(NC(=S)NC(NC(=O)Cc2cccc3ccccc23)C(Cl)(Cl)Cl)c1` (stereo not given), for which the cell number change was -57.1%. For the same molecule, the AC50 under setting [2] is 4.11 µM [falling, full curve]. In addition, the AC50 under setting [1] was 4.11 µM [falling, full curve].
Regarding `COc1ccccc1C1CCN(c2ccc(CO)cc2[N+](=O)[O-])CC1`, the cell number change was -1.46%. Besides, the AC50 under setting [2] was 0.58 µM [falling, single point]. Further, the concentration at half-maximal activity (AC50) under setting [1] was 0.461 µM [falling, single point].
In the case of `CC1=C(C(=O)OCc2ccccc2)C(c2ccc([N+](=O)[O-])cc2)NC(=O)N1` (stereo not given), the cell number change was -35.6%. Also, under setting [2], the AC50 is 32.6 µM [falling, single point]. For the same molecule, the half-maximal activity concentration (AC50) under setting [1] was 0.58 µM [falling, single point].
Regarding `O=C(NC1CCN(C(=S)Nc2ccccc2Cl)CC1)C1CCCCC1`, the cell number change was -6.41%. Further, the AC50 under setting [1] was 29.1 µM [falling, single point].
Consider `Cc1nc2sc3c(c2c(=O)n1N)CCC3`, for which the cell number change was 35.2%. The AC50 under setting [2] was 13 µM [rising, partial curve, poor fit].
For the molecule `CCCCOC(=O)c1ccc(OC(=O)c2cccnc2)cc1`, the cell number change is -13.2%. Also, the concentration at half-maximal activity (AC50) under setting [1] is 0.411 µM [falling, partial curve].
Take `O=C(Cn1nc(-c2ccco2)ccc1=O)Nc1ccc(Br)cc1`: the cell number change was -13.7%. Moreover, the AC50 under setting [1] is 2.59 µM [falling, partial curve, poor fit].
For `COc1ccc(-c2n[nH]c(C)c2-c2cnn(-c3ccccc3)c2)c(O)c1`, the cell number change was -57%. Besides, the AC50 under setting [2] was 16.4 µM [falling, single point].
Take `Cc1cc2nsnc2c(S(=O)(=O)NCC(=O)O)c1C`: the cell number change came to 17.4%.
In the case of `c1ccc(Cn2ncc3c2ncn2c(-c4ccncc4)nnc32)cc1`, the cell number change was determined as 55.3%. Moreover, the AC50 under setting [2] is 29.1 µM [rising, single point].
`O=S(=O)(NCC(c1cccnc1)N1CCN(c2ccc(F)cc2)CC1)c1ccc(F)cc1` (stereo not given): the AC50 under setting [2] is 0.411 µM [rising, full curve].
In the case of `COc1nc2ccccc2nc1N1CCN(c2ccc(F)cc2)CC1`, the AC50 under setting [1] is 6.51 µM [rising, partial curve].
For the molecule `CCc1cc2c(=O)c(-c3cnn(-c4ccccc4)c3)c(C)oc2cc1OCC(=O)Nc1cccc(C)c1`, the cell number change was determined as 4.84%. The AC50 under setting [1] is 29.1 µM [rising, single point].
In the case of `CCN(CC)C(=O)c1ccc2c(=O)n(Cc3ccc4c(c3)OCO4)c(=S)[nH]c2c1`, the cell number change turned out to be 9.91%.
Regarding `CC(C)c1ccc(NC(=O)C2CCN(C(=O)[C@@H]3Cc4ccccc4CN3)CC2)cc1`, the cell number change was determined as 23.3%. Further, the AC50 under setting [1] is 2.91 µM [rising, single point].
Consider `C=CCn1c(CCC(O)COCCCCC)n[nH]c1=S` (stereo not given), for which the cell number change was 37.4%. Besides, under setting [2], the AC50 was 3.26 µM [rising, full curve, poor fit]. Further, the AC50 under setting [1] is 6.51 µM [falling, single point].
Take `C=CCn1c(CNC(=O)c2ccccc2F)nnc1SCC(=O)N1CCOCC1`: the cell number change was -14.9%. For the same molecule, the AC50 under setting [1] was 29.1 µM [falling, single point].
Consider `N#Cc1ccc(OCC(=O)OCC(=O)Nc2sccc2C(N)=O)cc1`, for which the cell number change is 10.1%. Besides, the AC50 under setting [2] is 1.46 µM [falling, partial curve, poor fit].
As for `COc1cc(CNCc2ccncc2)cc(Br)c1OCc1ccccc1F`, the cell number change is -13.4%.
Turning to `O=C1c2ccccc2C(=O)C1c1ccc2ccccc2n1`, the cell number change is 9.69%. In addition, the AC50 under setting [1] is 0.731 µM [rising, full curve, poor fit].
Consider `C=C(C(=O)c1ccccc1)C(C)C(=C)C(=O)c1ccccc1`, for which the cell number change was -16.7%. The AC50 under setting [1] is 14.6 µM [falling, partial curve].
Consider `CC(C)CC(NS(=O)(=O)c1ccc2c(c1)oc(=O)n2C)C(=O)NC1CCCc2ccccc21` (stereo not given), for which the cell number change turned out to be 19.7%. The AC50 under setting [2] was 0.00411 µM [rising, full curve, poor fit].
`COc1cccc(NC(=O)[C@@H](NC(=O)N2CCn3c2nc2ccccc23)C(C)C)c1`: the cell number change is -4.25%. For the same molecule, under setting [1], the AC50 was 6.51 µM [rising, single point].
`N#CC1=C(N)Oc2cc(N)ccc2C1C1CC=CCC1` (stereo not given): the cell number change is -35%. The AC50 under setting [2] was 5.17 µM [falling, full curve]. Also, the AC50 under setting [1] is 0.92 µM [rising, full curve, poor fit].
`COc1ccc(CNC2CCCc3ccccc32)c(OC)c1` (stereo not given): the cell number change was -5.61%. The AC50 under setting [1] was 23.1 µM [falling, single point].
With `CC1CCN(C(=O)Cn2nnc(-c3ccc([N+](=O)[O-])cc3)n2)CC1`, the cell number change was determined as 18.6%.
On the same count and under the same terms, as for `O=C(CN1C(=O)NC2(CCCCC2)C1=O)Nc1cccc(Cl)c1Cl`, the figure is 8.15%; as for `CC(c1ccccc1)N(C)C(=O)CSc1nnc(C2CC2)n1C1CC1` (stereo not given), -47.3%.
Consider `Cc1cc(C)cc(-n2c(C)c3c(C)nnc(C)c3c2C)c1`, for which the cell number change was 13.1%. Further, the AC50 under setting [1] was 0.731 µM [rising, full curve].
Turning to `CCOC(=O)[C@H]1[C@H]2COc3ccc(Br)cc3[C@@H]2N2C(=O)CN(CC3CCCO3)C(=O)[C@@]12C` (stereo not given in full), the cell number change stood at 17.2%.
With `O=C(NC1CCCCC1)C(c1ccc2ncccc2c1)N(Cc1ccccc1)C(=O)c1ccc2c(c1)OCCO2` (stereo not given), the AC50 under setting [2] is 0.58 µM [rising, full curve].
